The list shows only some results of the screen, not a fair sample: it gathers tests that were run many times, whatever their T/C, doses with no T/C, and many T/C values between a quarter and a half above the control. Further doses and runs are listed elsewhere. T/C is the treated group as % of the vehicle group. Some entries give survivors of the animals treated and no T/C: the source files T/C as zero there, which appears to mark a toxic dose or a test without result, not a measured value. Some doses without a T/C left all or most animals alive at the check, yet need not have been tolerated: the source hardly ever lists a survival T/C far under the control, and the zero likely stands for such cases as well. Survivors were counted at the toxicity check, usually on the fifth day, unless a day is given; later deaths do not show. Schedules are NCI's codes, read here as Q, the interval in days (D) or hours (H), X, the number of doses. Some entries were tested several times; the results are listed from low to high. For survival time, this PubChem deposit counts one and a half times the control or more as active, and values a quarter to a half above the control carry no call in these data; other NCI protocols may use other cut-offs. Some T/C values carry the count of animals alive at the toxicity check (mostly the fifth day); where none is given, no animal had died by that day.

The text below walks through data of PubChem BioAssay AID330 (DTP/NCI, 2004).

In the assay the test system is P388 leukemia ip, CD2F1 mice, survival T/C. The assay can be described thus: NCI In Vivo Anticancer Drug Screen. Data for tumor model P388 Leukemia (intraperitoneal) in CD2F1 (CDF1) mice. The conditions noted are these: T/C endpoint: median survival time, higher T/C = longer survival.
[1] abbreviates: dose: 200.0 mg/kg/injection, schedule: Q01DX005 (ip), vehicle: saline.
Setting [2] is: dose: 50.0 mg/kg/injection, schedule: Q01DX009 (ip), vehicle: saline with Tween-80.
[3] abbreviates: dose: 100.0 mg/kg/injection, schedule: Q01DX009 (ip), vehicle: saline with Tween-80.
Setting [4] is: dose: 200.0 mg/kg/injection, schedule: Q01DX009 (ip), vehicle: saline with Tween-80.
The mark [5] stands for this setting: dose: 50.0 mg/kg/injection, schedule: Q01DX009 (ip), vehicle: Klucel (hydroxypropylcellulose) (HPC).
Setting [6] is: dose: 400.0 mg/kg/injection, schedule: Q04DX003 (ip), vehicle: saline with Tween-80.

As for `COc1cccc2c1C(=O)c1c(O)c3c(c(O)c1C2=O)C[C@@](O)(C(C)=O)C[C@@H]3OC(=O)CCN`, the T/C by setting is: (dose: 5.56 mg/kg/injection, schedule: Q01DX009 (ip), vehicle: water) 126 % of control; (dose: 6.25 mg/kg/injection, schedule: Q01DX009 (ip), vehicle: water) 126 % of control; (dose: 12.5 mg/kg/injection, schedule: Q01DX009 (ip), vehicle: water) 126 % of control.
Turning to `C/C=C\C1OC1(C)c1cc(=O)c2c(C)cc3c(c2o1)C(=O)c1c(O)c(C2CC(C)(N(C)C)C(OC(C)=O)C(C)O2)cc(C2CC(N(C)C)C(O)C(C)O2)c1C3=O` (stereo not given), the T/C by setting is: (dose: 0.25 mg/kg/injection, schedule: Q01DX009 (ip), vehicle: saline + alcohol) 131 % of control; (dose: 0.25 mg/kg/injection, schedule: Q01DX010 (ip), vehicle: saline) 127 % of control [5 of 6 alive]; (dose: 0.5 mg/kg/injection, schedule: Q01DX009 (ip), vehicle: saline + alcohol) 133 and 145 % of control; (dose: 0.5 mg/kg/injection, schedule: Q01DX010 (ip), vehicle: saline) 140 % of control [5 of 6 alive]; (dose: 1.0 mg/kg/injection, schedule: Q01DX009 (ip), vehicle: saline + alcohol) 140 % of control.
Take `COC1=C(OC)C(=O)C(SCCCc2ccccc2)=CC1=O`: the survivor count by setting is: (dose: 100.0 mg/kg/injection, schedule: Q04DX002 (ip), vehicle: saline with Tween-80) 1 of 6; (dose: 200.0 mg/kg/injection, schedule: Q04DX002 (ip), vehicle: saline with Tween-80) 0 of 6; (dose: 400.0 mg/kg/injection, schedule: Q04DX002 (ip), vehicle: saline with Tween-80) 0 of 6.
For `Cn1nc(-c2cccc(F)c2)[n+](C)n1`, under setting [1], the survivor count was 4 of 5.
In the case of `CC1(C)C(=O)CCC2(C)C1CC(=O)C1(C)C2CCC2(C)C(c3ccoc3)OC(=O)C3OC321` (stereo not given), for the setting “dose: 1.0 mg/kg/injection, schedule: Q01DX009 (ip), vehicle: Klucel (hydroxypropylcellulose) (HPC)”, the survivor count is recorded as 6 of 6.
For `COCCN[C@@H]1C[C@@](C)(O)Cc2cc3c(c(O)c21)C(=O)c1c(O)cc2c(c1C3=O)O[C@H]1O[C@]2(C)[C@@H](O)[C@H](N(C)C)[C@H]1O`, the T/C runs as follows: (dose: 15.0 mg/kg/injection, schedule: Q01DX009 (ip), vehicle: other) 133 % of control; (dose: 20.0 mg/kg/injection, schedule: Q01DX009 (ip), vehicle: other) 138 % of control; (dose: 30.0 mg/kg/injection, schedule: Q01DX009 (ip), vehicle: other) 140 % of control; (dose: 40.0 mg/kg/injection, schedule: Q01DX009 (ip), vehicle: other) 140 % of control. Further, the survivor count (dose: 120.0 mg/kg/injection, schedule: Q01DX009 (ip), vehicle: other) is 5 of 6.
Turning to `Nc1cc(C(=O)Nc2ccc(C3=NCCN3)cc2)cc(C(=O)Nc2ccc(C3=NCCN3)cc2)c1`, the T/C (dose: 16.0 mg/kg/injection, schedule: Q01DX010 (ip), vehicle: saline) is 145 % of control. The survivor count was 3 of 6 (dose: 64.0 mg/kg/injection, schedule: Q01DX010 (ip), vehicle: saline) and 0 of 6 (dose: 128.0 mg/kg/injection, schedule: Q01DX010 (ip), vehicle: saline).
Consider `OC(c1cc2ccc(C(F)(F)F)cc2c2cc(C(F)(F)F)ccc12)C1CCCCN1` (stereo not given), for which the survivor count under setting [2] is 2 of 6 and 4 of 6; the survivor count under setting [3] was 0 of 6; the survivor count under setting [4] is listed as 0 of 6.
As to `COc1ccc(C[n+]2ccc3ccccc3c2)cc1`, the survivor count is, setting by setting: (dose: 120.0 mg/kg/injection, schedule: Q01DX005 (ip), vehicle: saline) 0 of 6; (dose: 240.0 mg/kg/injection, schedule: Q01DX005 (ip), vehicle: saline) 0 of 6.
As to `Clc1nn2ccnc2c2cccnc12`, the survivor count was 1 of 6 (dose: 50.0 mg/kg/injection, schedule: Q04DX003 (ip), vehicle: Klucel (hydroxypropylcellulose) (HPC)); 0 of 6 (dose: 100.0 mg/kg/injection, schedule: Q04DX003 (ip), vehicle: Klucel (hydroxypropylcellulose) (HPC)); 0 of 6 (dose: 200.0 mg/kg/injection, schedule: Q04DX003 (ip), vehicle: Klucel (hydroxypropylcellulose) (HPC)); 0 of 6 (dose: 400.0 mg/kg/injection, schedule: Q04DX003 (ip), vehicle: Klucel (hydroxypropylcellulose) (HPC)).
Turning to `COC(=O)C(N)Cc1ccc(O)c(O)c1` (stereo not given), the survivor count by setting is: (dose: 12.5 mg/kg/injection, schedule: Q08HX028 (ip), vehicle: water) 6 of 6; (dose: 25.0 mg/kg/injection, schedule: Q08HX028 (ip), vehicle: water) 6 of 6; (dose: 1600.0 mg/kg/injection, schedule: Q01DX009 (ip), vehicle: saline) 1 of 6 and 2 of 6. The T/C by setting is: (dose: 400.0 mg/kg/injection, schedule: Q01DX009 (ip), vehicle: saline) 131 and 142 % of control; (dose: 400.0 mg/kg/injection, schedule: Q08HX028 (ip), vehicle: water) 138 % of control; (dose: 800.0 mg/kg/injection, schedule: Q01DX009 (ip), vehicle: saline) 135 % of control; (dose: 800.0 mg/kg/injection, schedule: Q08HX028 (ip), vehicle: water) 129 % of control.
As to `CC1CC2OC(/C=C/C=C/C=C\C=C\C=C\C(O)=C3\C(=O)C(C(C)C)N(C)C3=O)C(O)C2O1` (stereo not given), the T/C is 127 and 140 % of control (dose: 6.0 mg/kg/injection, schedule: Q01DX005 (ip), vehicle: Klucel (hydroxypropylcellulose) (HPC)); 135 and 139 % of control (dose: 12.0 mg/kg/injection, schedule: Q01DX005 (ip), vehicle: Klucel (hydroxypropylcellulose) (HPC)); 147 and 148 % of control (dose: 24.0 mg/kg/injection, schedule: Q01DX005 (ip), vehicle: Klucel (hydroxypropylcellulose) (HPC)).
For the compound `Cc1c2ccncc2c(C)c2c1[nH]c1cc(O)ccc12`, the T/C was 126 % of control (dose: 12.5 mg/kg/injection, schedule: Q04DX003 (ip), vehicle: distilled water + Tween-80); 125 and 133 % of control (dose: 25.0 mg/kg/injection, schedule: Q04DX003 (ip), vehicle: distilled water + Tween-80); 134 and 145 % of control (dose: 50.0 mg/kg/injection, schedule: Q04DX003 (ip), vehicle: distilled water + Tween-80).
Consider `[Cu+2].[NH-]CCC[N-]CCCC[N-]CCC[NH-].[O-][Cl+3]([O-])([O-])O`, for which the survivor count is on record as 0 of 6 (dose: 100.0 mg/kg/injection, schedule: Q04DX002 (ip), vehicle: Klucel (hydroxypropylcellulose) (HPC)); 0 of 6 (dose: 200.0 mg/kg/injection, schedule: Q04DX002 (ip), vehicle: Klucel (hydroxypropylcellulose) (HPC)); 0 of 6 (dose: 400.0 mg/kg/injection, schedule: Q04DX002 (ip), vehicle: Klucel (hydroxypropylcellulose) (HPC)).
As for `CN(C)CCCn1c(=O)nc2n(-c3ccccc3)c3ccccc3nc-2c1=O`, the survivor count (dose: 12.5 mg/kg/injection, schedule: Q01DX009 (ip), vehicle: Klucel (hydroxypropylcellulose) (HPC)) is 5 of 6; the survivor count (dose: 25.0 mg/kg/injection, schedule: Q01DX009 (ip), vehicle: Klucel (hydroxypropylcellulose) (HPC)) was 6 of 6; the survivor count under setting [5] is reported as 6 of 6; the survivor count (dose: 100.0 mg/kg/injection, schedule: Q01DX009 (ip), vehicle: Klucel (hydroxypropylcellulose) (HPC)) is listed as 0 of 6; the survivor count (dose: 200.0 mg/kg/injection, schedule: Q01DX009 (ip), vehicle: Klucel (hydroxypropylcellulose) (HPC)) is on record as 0 of 6. The T/C under setting [5] was 126 % of control.
Regarding `O=S1(=O)C=C(c2cccs2)C1`, the survivor count runs as follows: (dose: 200.0 mg/kg/injection, schedule: Q04DX003 (ip), vehicle: saline with Tween-80) 6 of 6; under setting [6], 4 of 6.
For `NC(=S)Oc1ccccc1`, the survivor count under setting [2] was 6 of 6.
On to `C=CCC(N)C(=O)O` (stereo not given), for which the survivor count under setting [1] is given as 0 of 5.
For `C[N+]1(CSc2ccccc2)CCCCC1`, the survivor count was 2 of 6 and 3 of 6 under setting [2]; 0 of 6 under setting [3]; 0 of 6 under setting [4].
`Clc1ccc2[nH]c3c(c2c1)CCCC3`: the survivor count under setting [6] is on record as 3 of 6.
